Drawing on doi:10.1101/2024.01.29.577192, this text covers binding for two molecules.

Amino acid sequences for entries named in this document (tags omitted).
UniProt Q00839: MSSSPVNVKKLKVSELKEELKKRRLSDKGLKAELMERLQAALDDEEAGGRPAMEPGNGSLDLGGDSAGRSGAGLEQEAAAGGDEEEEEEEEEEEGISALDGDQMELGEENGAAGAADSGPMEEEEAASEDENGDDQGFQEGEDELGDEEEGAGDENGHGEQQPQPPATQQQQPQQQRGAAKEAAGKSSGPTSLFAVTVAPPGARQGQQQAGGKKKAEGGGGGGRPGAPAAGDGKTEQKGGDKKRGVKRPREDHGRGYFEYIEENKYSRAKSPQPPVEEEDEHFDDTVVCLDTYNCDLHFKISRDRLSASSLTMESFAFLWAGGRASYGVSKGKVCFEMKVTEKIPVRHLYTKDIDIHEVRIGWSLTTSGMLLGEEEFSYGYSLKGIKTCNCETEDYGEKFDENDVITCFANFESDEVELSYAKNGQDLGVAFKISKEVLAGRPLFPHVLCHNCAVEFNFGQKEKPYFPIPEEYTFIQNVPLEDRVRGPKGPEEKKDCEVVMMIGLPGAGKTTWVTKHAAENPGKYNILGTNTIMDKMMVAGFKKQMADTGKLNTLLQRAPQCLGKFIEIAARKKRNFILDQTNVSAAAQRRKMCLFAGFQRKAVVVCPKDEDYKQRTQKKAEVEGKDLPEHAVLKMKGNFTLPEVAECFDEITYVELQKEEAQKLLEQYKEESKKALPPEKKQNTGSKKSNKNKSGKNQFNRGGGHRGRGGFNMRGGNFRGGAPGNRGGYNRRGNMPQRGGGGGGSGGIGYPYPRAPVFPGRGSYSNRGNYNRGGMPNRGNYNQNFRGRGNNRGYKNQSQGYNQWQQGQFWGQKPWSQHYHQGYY
UniProt O00571: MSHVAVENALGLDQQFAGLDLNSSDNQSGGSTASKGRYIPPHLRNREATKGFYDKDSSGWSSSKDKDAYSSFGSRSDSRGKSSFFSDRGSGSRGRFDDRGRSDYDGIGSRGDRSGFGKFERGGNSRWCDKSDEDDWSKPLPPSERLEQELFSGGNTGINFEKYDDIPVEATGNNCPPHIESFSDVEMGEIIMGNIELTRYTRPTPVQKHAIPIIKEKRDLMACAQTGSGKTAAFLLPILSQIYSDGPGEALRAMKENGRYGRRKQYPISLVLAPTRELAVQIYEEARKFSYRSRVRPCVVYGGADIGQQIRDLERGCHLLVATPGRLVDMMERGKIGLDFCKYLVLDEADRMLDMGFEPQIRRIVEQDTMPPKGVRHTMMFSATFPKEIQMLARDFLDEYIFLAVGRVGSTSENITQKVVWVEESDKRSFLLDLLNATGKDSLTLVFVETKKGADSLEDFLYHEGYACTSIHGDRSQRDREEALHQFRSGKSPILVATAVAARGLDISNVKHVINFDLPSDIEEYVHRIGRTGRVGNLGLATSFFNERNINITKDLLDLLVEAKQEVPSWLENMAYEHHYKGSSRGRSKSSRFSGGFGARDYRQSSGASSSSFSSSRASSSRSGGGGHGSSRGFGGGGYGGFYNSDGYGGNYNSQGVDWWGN

Test [1] has as its target hnRNP U (human (endogenous in HCT116)) (UniProt Q00839). As to the kind of experiment: affinity purification with mass spectrometry.
Test [2] shares this target. The experiment in a line: affinity purification with mass spectrometry. The source holds these as a separate data set.

Where two headings read alike, the source gives them in different places. These are yes or no findings as the source states them, for the method shown. In cells and extracts the contact can be indirect. Here binding means that the protein was enriched with, or labelled near, the bait; the list need not be complete. For some assays here: A no says only that the protein was not detected with the bait.

Take DDX3X (from UniProt O00571 1-662): the binding result in test [1] is given as “binds”.

B1: GRSF1 (protein, UniProt Q12849 118-480)
chain: SQESKTTYLEDLPPPPEYELAPSKLEEEVDDVFLIRAQGLPWSCTMEDVLNFFSDCRIRNGENGIHFLLNRDGKRRGDALIEMESEQDVQKALEKHRMYMGQRYVEVYEINNEDVDALMKSLQVKSSPVVNDGVVRLRGLPYSCNEKDIVDFFAGLNIVDITFVMDYRGRRKTGEAYVQFEEPEMANQALLKHREEIGNRYIEIFPSRRNEVRTHVGSYKGKKIASFPTAKYITEPEMVFEEHEVNEDIQPMTAFESEKEIELPKEVPEKLPEAADFGTTSSLHFVHMRGLPFQANAQDIINFFAPLKPVRITMEYSSSGKATGEADVHFETHEDAVAAMLKDRSHVHHRYIELFLNSCPKGK
For B1, the binding entry in test [2] is given as “no binding”.
